These are yes or no findings as the source states them, for the method shown. Some binding calls cover weakened binding; strength is not graded here.
Key:
[1] = target: horse Cytochrome c (Cyt c) (horse) (UniProt P00004); experiment: Adsorption on horse Cyt c-Affi-Gel 10, acid elution, SDS-PAGE
[2] = target: horse Cytochrome c (Cyt c) (horse) (UniProt P00004); experiment: Adsorption of the human serum fraction on horse Cyt c-Affi-Gel 10, SDS-PAGE, MALDI-TOF MS

The chains behind the UniProt entries cited, without tags or fusion partners. Residues count along the entry.
UniProt P00004, residues 2-105: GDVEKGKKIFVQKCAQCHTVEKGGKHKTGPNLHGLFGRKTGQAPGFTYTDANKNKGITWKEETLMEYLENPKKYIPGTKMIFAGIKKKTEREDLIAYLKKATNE
UniProt P02769, residues 25-607: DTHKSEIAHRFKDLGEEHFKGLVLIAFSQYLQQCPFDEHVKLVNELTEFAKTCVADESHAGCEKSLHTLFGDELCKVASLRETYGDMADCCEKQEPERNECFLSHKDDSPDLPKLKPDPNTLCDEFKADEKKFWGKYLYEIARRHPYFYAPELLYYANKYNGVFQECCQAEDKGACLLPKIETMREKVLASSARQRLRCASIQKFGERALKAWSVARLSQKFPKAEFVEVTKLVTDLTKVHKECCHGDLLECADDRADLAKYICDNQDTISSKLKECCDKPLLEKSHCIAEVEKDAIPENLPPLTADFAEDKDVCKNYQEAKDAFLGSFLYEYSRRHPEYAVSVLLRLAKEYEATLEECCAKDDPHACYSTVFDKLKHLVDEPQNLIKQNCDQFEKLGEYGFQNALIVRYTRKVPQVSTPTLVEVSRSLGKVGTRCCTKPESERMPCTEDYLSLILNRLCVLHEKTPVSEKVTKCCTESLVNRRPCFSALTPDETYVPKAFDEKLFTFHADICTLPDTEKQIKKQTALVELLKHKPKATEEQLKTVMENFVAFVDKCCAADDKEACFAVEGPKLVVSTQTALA

bovine serum albumin (BSA) (from UniProt P02769 25-607)
binding [1]: binds

B1: hemopexin (protein, human, UniProt P02790 24-462, looked up)
chain: TPLPPTSAHGNVAEGETKPDPDVTERCSDGWSFDATTLDDNGTMLFFKGEFVWKSHKWDRELISERWKNFPSPVDAAFRQGHNSVFLIKGDKVWVYPPEKKEKGYPKLLQDEFPGIPSPLDAAVECHRGECQAEGVLFFQGDREWFWDLATGTMKERSWPAVGNCSSALRWLGRYYCFQGNQFLRFDPVRGEVPPRYPRDVRDYFMPCPGRGHGHRNGTGHGNSTHHGPEYMRCSPHLVLSALTSDNHGATYAFSGTHYWRLDTSRDGWHSWPIAHQWPQGPSAVDAAFSWEEKLYLVQGTQVYVFLTKGGYTLVSGYPKRLEKEVGTPHGIILDSVDAAFICPGSSRLHIMAGRRLWWLDLKSGAQATWTELPWPHEKVDGALCMEKSLGPNSCSANGPGLYLIHGPNLYCYSDVEKLNAAKALPQPQNVTSLLGCTH
binding [2]: binds

— US20070184503A1
